# According to patent publication US20210002263A1, “HETEROARYLPYRIMIDINE COMPOUND AND FORMULATION FOR CONTROLLING HARMFUL ORGANISMS” (Nippon Soda Co., Ltd., priority 2018, published 2021):
# Some of these results come from one statement about several compounds together. At least one structure is not confirmed: it was looked up by name or label, or the drawing left a doubt.
# Tested on: Aphis craccivora
# Test: Efficacy test against Aphis craccivora (spray on black-eyed pea plants)
# Assay type: in vivo
# Settings: 125 ppm; sprayed on black-eyed pea plants; nymphs; 4 days after spraying
# Protocol: (§1) 5 parts of the compound of the present invention, 93.6 parts of dimethylformamide and 1.4 parts of polyoxyethylene alkyl aryl ether were mixed and dissolved to prepare Emulsion (I) including 5% of an active ingredient.
# (§2) An insect mortality rate was calculated by the numerical equation shown below.
# (§3) Insect mortality rate (%)={(Number of dead insects)/(Number of sample insects)}×100
# Black-eyed pea plants were raised in No. 3 pots and the primary leaves were inoculated with nymphs of Aphis craccivora. Emulsion (I) was diluted with water so that the concentration of the compound of the present invention was 125 ppm. Subsequently, the aforementioned diluted liquid was sprayed on the black-eyed pea plants on which the nymphs of Aphis craccivora were parasitic. The aforementioned black-eyed pea plants were then placed in a thermostatic chamber with a temperature of 25° C. and humidity of 60%. Mortality was investigated 4 days after spraying was carried out, and the insect mortality rate of Aphis craccivora was calculated. The test was performed twice.
row,SMILES,insect mortality rate [%]
1,CCS(=O)(=O)c1cnc(-n2ncnc2N)nc1-c1nc2cc(C(F)(F)F)ncc2n1C [A-38],≥ 80
2,CCS(=O)(=O)c1cnc(OC)nc1-c1nc2cc(C(F)(F)F)cnc2n1C [A-23],≥ 80
3,CCOC(=N)Nc1ncc(S(=O)(=O)CC)c(-c2nc3cc(C(F)(F)F)cnc3n2C)n1 [A-33],≥ 80
4,CCS(=O)(=O)c1cnc(NC)nc1-c1nc2cc(C(F)(F)F)cnc2n1C [A-16],≥ 80
5,CCS(=O)(=O)c1cnc(-c2nc[nH]n2)nc1-c1nc2cc(C(F)(F)F)cnc2n1C [A-4],≥ 80
6,CCOC(=O)c1cnn(-c2ncc(S(=O)(=O)CC)c(-c3nc4cc(C(F)(F)F)cnc4n3C)n2)c1 [A-35],≥ 80
7,CCS(=O)(=O)c1cnc(-n2cccn2)nc1-c1nc2cc(C(F)(F)F)cnc2n1C [A-20],≥ 80
8,CCS(=O)(=O)c1cnc(NN)nc1-c1nc2cc(C(F)(F)F)ncc2n1C [A-36],≥ 80
9,CCS(=O)(=O)c1cnc(-c2ncn(C)n2)nc1-c1nc2cc(C(F)(F)F)cnc2n1C [A-5],≥ 80
10,CCS(=O)(=O)c1cnc(N(C)N)nc1-c1nc2cc(C(F)(F)F)cnc2n1C [A-14],≥ 80

# Tested on: Plutella xylostella
# Test: Efficacy test against Plutella xylostella (cabbage leaf dip)
# Assay type: in vivo
# Settings: 125 ppm; cabbage leaves soaked 30 seconds; second-instar larvae; 3 days after inoculation
# Protocol: as §1, §2, §3
# Emulsion (I) was diluted with water so that the concentration of the compound of the present invention was 125 ppm. Cabbage leaves were soaked in the diluted liquid for 30 seconds. Subsequently, the cabbage leaves were put on Petri dishes, followed by inoculating 5 second-instar larvae of Plutella xylostella. The Petri dishes were placed in a thermostatic chamber at a temperature of 25° C. and humidity of 60%. Mortality was investigated 3 days after inoculation, and the insect mortality rate was calculated. The test was performed twice.
row,SMILES,insect mortality rate [%]
1,CCS(=O)(=O)c1cnc(OC)nc1-c1nc2cc(C(F)(F)F)cnc2n1C [A-23],≥ 80
2,CCS(=O)(=O)c1cnc(-n2ncc(C#N)c2N)nc1-c1nc2cc(C(F)(F)F)cnc2n1C [A-34],≥ 80
3,CCS(=O)(=O)c1cnc(-c2ncn(CC(F)(F)F)n2)nc1-c1nc2cc(C(F)(F)F)cnc2n1C [A-6],≥ 80
4,CCS(=O)(=O)c1cnc(NC(=O)NC)nc1-c1nc2cc(C(F)(F)F)cnc2n1C [A-15],≥ 80
5,CCS(=O)(=O)c1cnc(-c2ncn(C)n2)nc1-c1nc2cc(C(F)(F)F)cnc2n1C [A-5],≥ 80
6,CCS(=O)(=O)c1cnc(OCC(F)(F)F)nc1-c1nc2cc(C(F)(F)F)cnc2n1C [A-30],≥ 80

# Tested on: Phyllotreta striolata
# Test: Efficacy test against Phyllotreta striolata (spray on bok-choi seedlings)
# Assay type: in vivo
# Settings: 125 ppm; sprayed on bok-choi seedlings; adults; 7 days after inoculation
# Protocol: as §1, §2, §3
# Emulsion (I) was diluted with water so that the concentration of the compound of the present invention was 125 ppm, to prepare a diluted liquid for testing. The aforementioned diluted liquid was sprayed on bok-choi seedlings (7th major leaf-development period) planted in No. 3 pots. After the bok-choi seedlings were subjected to air-drying, the seedlings were placed in plastic cups, followed by inoculating 10 adult Phyllotreta striolata. The plastic cups were stored in a thermostatic chamber at a temperature of 25° C. and humidity of 65%. Mortality was investigated 7 days after inoculation, and the insect mortality rate was calculated. The test was performed twice.
row,SMILES,insect mortality rate [%]
1,CCS(=O)(=O)c1cnc(-n2ncnc2N)nc1-c1nc2cc(C(F)(F)F)ncc2n1C [A-38],≥ 80
2,CCS(=O)(=O)c1cnc(-c2ncn(CC(F)(F)F)n2)nc1-c1nc2cc(C(F)(F)F)cnc2n1C [A-6],≥ 80
3,CCS(=O)(=O)c1cnc(NC(=O)NC)nc1-c1nc2cc(C(F)(F)F)cnc2n1C [A-15],≥ 80
4,CCS(=O)(=O)c1cnc(-n2cccn2)nc1-c1nc2cc(C(F)(F)F)cnc2n1C [A-20],≥ 80
5,CCS(=O)(=O)c1cnc(-n2cnc(N)n2)nc1-c1nc2cc(C(F)(F)F)cnc2n1C [A-11],≥ 80
6,CCS(=O)(=O)c1cnc(-c2ncn(C)n2)nc1-c1nc2cc(C(F)(F)F)cnc2n1C [A-5],≥ 80

# Tested on: Nilaparvata lugens
# Test: Efficacy test against Nilaparvata lugens (rice seedling dip)
# Assay type: in vivo
# Settings: 125 ppm; rice seedlings soaked 30 seconds; second-instar larvae; 7 days after inoculation
# Protocol: as §1, §2, §3
# Emulsion (I) was diluted with water so that the concentration of the compound of the present invention was 125 ppm. Rice seedlings were soaked in the diluted liquid for 30 seconds, and subjected to air-drying. Subsequently, the rice seedlings were placed in plastic cases, followed by inoculating 5 second-instar larvae of Nilaparvata lugens. The plastic cases were placed in a thermostatic chamber at a temperature of 25° C. and humidity of 65%. Mortality was investigated 7 days after inoculation, and the insect mortality rate was calculated. The test was performed twice.
row,SMILES,insect mortality rate [%]
1,CCS(=O)(=O)c1cnc(-n2ncnc2N)nc1-c1nc2cc(C(F)(F)F)ncc2n1C [A-38],≥ 80
2,CCS(=O)(=O)c1cnc(OC)nc1-c1nc2cc(C(F)(F)F)cnc2n1C [A-23],≥ 80
3,CCS(=O)(=O)c1cnc(-n2ncc(C#N)c2N)nc1-c1nc2cc(C(F)(F)F)cnc2n1C [A-34],≥ 80
4,CCS(=O)(=O)c1cnc(NC)nc1-c1nc2cc(C(F)(F)F)cnc2n1C [A-16],≥ 80
5,CCS(=O)(=O)c1cnc(-c2nc[nH]n2)nc1-c1nc2cc(C(F)(F)F)cnc2n1C [A-4],≥ 80
6,CCS(=O)(=O)c1cnc(NC(=O)NC)nc1-c1nc2cc(C(F)(F)F)cnc2n1C [A-15],≥ 80
7,CCS(=O)(=O)c1cnc(-n2cccn2)nc1-c1nc2cc(C(F)(F)F)cnc2n1C [A-20],≥ 80
8,CCS(=O)(=O)c1cnc(N(C)C(C)=O)nc1-c1nc2cc(C(F)(F)F)cnc2n1C [A-18],≥ 80
9,CCS(=O)(=O)c1cnc(-n2cnc(N)n2)nc1-c1nc2cc(C(F)(F)F)cnc2n1C [A-11],≥ 80
10,CCS(=O)(=O)c1cnc(-c2ncn(C)n2)nc1-c1nc2cc(C(F)(F)F)cnc2n1C [A-5],≥ 80
11,CCS(=O)(=O)c1cnc(-c2ncccn2)nc1-c1nc2cc(C(F)(F)F)ncc2n1C [A-40],≥ 80
